This is an account of results in article PMC2890605.

Sequences of proteins named here, by UniProt entry; tags and fusion partners are left off.
UniProt Q02224: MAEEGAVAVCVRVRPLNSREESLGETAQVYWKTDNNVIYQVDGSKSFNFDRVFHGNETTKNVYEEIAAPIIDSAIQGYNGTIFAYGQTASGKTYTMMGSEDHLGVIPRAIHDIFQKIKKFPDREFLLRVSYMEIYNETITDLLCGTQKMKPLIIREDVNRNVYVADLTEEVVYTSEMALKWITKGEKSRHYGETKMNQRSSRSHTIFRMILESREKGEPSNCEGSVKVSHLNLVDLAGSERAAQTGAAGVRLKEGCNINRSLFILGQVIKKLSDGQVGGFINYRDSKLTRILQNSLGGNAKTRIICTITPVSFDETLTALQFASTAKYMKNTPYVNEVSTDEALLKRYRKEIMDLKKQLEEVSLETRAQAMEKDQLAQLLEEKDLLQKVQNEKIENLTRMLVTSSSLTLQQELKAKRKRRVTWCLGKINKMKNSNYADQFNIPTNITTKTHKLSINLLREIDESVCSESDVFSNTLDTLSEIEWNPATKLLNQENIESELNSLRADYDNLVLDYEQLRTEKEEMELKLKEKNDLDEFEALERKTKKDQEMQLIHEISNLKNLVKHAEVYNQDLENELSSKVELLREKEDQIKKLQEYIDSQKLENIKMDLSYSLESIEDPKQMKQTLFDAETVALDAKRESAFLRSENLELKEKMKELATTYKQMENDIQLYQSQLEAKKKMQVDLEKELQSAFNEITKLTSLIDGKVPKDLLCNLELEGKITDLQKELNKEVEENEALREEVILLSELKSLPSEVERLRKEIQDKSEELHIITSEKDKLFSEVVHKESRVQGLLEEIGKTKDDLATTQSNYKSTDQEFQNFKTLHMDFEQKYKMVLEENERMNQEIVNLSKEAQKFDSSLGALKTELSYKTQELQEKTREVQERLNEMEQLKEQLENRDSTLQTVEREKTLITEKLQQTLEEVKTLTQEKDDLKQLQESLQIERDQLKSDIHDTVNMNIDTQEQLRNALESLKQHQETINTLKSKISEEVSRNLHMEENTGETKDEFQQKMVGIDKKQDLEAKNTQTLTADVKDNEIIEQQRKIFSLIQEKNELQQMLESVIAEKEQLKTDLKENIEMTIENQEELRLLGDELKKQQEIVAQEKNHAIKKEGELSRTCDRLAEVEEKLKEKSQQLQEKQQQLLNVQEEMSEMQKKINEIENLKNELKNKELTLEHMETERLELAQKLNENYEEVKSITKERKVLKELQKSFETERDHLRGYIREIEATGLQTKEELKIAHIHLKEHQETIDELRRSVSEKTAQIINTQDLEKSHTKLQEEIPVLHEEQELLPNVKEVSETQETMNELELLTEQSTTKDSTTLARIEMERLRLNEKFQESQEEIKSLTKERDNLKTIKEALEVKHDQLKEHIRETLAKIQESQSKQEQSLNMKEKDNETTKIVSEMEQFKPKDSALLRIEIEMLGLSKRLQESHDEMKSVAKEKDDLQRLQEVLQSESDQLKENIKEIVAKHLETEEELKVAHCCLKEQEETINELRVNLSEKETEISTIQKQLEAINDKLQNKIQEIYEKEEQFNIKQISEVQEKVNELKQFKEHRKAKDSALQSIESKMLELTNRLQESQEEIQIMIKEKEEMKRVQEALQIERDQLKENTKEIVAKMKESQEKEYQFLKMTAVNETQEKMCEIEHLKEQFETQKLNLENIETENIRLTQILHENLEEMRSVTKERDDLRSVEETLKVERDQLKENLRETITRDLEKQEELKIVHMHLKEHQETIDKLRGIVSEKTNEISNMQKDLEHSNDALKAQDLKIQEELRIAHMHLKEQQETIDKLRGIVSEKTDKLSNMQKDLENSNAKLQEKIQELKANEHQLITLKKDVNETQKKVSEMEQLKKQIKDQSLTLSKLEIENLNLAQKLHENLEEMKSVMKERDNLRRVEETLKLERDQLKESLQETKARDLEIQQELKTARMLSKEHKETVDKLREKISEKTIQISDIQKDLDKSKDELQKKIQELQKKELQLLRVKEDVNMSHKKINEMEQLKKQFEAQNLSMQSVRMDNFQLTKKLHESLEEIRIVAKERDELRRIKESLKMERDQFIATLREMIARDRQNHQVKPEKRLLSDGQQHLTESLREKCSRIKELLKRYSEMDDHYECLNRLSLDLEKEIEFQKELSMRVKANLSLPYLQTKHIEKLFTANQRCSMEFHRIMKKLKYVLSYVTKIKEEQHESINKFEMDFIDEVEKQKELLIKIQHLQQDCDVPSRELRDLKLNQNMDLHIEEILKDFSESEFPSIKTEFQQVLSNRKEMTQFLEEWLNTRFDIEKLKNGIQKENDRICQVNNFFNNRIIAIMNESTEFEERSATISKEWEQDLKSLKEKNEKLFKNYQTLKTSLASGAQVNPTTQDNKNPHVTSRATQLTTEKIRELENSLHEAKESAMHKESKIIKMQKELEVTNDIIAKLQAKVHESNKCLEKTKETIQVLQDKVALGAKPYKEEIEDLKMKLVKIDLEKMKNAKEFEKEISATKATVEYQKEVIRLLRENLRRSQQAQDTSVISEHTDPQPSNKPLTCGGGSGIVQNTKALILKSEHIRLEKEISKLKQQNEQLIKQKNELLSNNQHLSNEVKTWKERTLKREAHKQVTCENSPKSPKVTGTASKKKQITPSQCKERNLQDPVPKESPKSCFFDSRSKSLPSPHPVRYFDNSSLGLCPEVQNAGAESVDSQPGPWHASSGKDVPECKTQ
UniProt P49790: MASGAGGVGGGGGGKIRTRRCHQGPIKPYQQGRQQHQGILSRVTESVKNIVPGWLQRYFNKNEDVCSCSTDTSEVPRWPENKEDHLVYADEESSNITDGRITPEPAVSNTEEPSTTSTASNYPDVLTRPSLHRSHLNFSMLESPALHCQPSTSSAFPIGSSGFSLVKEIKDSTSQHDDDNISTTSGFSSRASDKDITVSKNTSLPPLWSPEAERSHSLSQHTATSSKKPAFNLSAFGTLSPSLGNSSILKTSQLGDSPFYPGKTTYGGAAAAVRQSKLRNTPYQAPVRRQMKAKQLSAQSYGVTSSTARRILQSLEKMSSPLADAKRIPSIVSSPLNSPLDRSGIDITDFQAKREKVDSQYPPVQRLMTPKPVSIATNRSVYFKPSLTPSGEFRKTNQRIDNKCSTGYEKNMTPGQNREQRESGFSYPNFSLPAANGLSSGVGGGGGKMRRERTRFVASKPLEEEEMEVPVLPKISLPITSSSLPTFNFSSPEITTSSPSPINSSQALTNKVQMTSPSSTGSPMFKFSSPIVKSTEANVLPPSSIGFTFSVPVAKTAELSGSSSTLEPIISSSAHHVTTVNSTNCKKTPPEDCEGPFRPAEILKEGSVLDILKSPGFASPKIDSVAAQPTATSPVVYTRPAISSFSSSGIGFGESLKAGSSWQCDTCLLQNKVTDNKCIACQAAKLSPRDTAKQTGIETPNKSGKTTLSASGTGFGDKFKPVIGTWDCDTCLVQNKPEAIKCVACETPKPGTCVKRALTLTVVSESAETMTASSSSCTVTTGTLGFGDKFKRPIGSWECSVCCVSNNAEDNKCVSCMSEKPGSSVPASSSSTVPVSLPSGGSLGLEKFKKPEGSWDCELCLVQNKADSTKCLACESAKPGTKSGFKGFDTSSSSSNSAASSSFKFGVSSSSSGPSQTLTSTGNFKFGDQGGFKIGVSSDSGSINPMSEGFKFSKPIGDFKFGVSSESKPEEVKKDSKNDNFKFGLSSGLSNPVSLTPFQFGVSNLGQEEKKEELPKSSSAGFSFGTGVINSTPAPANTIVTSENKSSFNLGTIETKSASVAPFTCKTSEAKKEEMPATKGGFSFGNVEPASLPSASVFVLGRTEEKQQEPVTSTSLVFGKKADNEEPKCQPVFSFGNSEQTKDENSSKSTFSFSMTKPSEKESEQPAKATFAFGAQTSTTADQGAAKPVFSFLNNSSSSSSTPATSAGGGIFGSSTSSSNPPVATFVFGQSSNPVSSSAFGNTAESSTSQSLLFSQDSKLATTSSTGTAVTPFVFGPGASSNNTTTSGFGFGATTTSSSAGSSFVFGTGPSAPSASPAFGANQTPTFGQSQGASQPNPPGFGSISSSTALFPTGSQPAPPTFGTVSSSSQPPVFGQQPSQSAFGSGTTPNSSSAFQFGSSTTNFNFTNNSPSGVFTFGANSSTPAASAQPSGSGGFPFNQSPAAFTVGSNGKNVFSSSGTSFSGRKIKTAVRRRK

These are yes or no findings as the source states them, for the method shown. In cells and extracts the contact can be indirect.

The experiment concerns the target T1, Nup88 (human (endogenous in HeLa)) (UniProt Q99567).
T1 sequence: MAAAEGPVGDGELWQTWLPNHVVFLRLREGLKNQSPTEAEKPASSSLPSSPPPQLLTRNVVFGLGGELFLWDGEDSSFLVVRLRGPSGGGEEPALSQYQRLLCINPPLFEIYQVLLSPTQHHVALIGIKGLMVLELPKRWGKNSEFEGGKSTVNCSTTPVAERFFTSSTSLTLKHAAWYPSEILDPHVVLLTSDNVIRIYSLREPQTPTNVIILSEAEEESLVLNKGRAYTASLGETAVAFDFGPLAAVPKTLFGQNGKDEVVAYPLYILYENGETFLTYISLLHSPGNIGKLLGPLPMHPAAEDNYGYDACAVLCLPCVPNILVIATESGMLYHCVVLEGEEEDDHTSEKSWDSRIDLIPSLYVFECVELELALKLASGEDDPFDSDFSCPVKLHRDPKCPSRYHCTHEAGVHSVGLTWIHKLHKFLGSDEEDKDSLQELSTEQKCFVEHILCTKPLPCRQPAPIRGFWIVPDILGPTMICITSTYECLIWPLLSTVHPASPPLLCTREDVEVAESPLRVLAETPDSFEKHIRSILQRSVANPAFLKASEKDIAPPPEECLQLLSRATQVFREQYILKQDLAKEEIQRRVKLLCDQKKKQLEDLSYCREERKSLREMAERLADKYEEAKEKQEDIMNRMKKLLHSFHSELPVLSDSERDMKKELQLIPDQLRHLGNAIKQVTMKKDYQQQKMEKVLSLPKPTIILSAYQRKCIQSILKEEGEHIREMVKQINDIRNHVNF
As to the kind of experiment: co-IP; immunoprecipitates from mitotic HeLa cell extracts with anti-Nup214, anti-Nup88 or nonspecific rabbit antibodies (IgG); SDS/PAGE and immunoblotting; 500 ul extract per immunoprecipitation. On the technique in general: Immunoblotting shows a protein as a band on a membrane.

As for CENP-E (from UniProt Q02224 1-2701), the binding entry was “no binding”.

Take Nup153 (from UniProt P49790 1-1475): the binding entry is listed as “no binding”.
